In the supplement of paper PMC10849652:
Some of the results follow.

Chains of the proteins cited; added tags and fusions are not shown. Lines headed by an entry give the natural chain unless they say otherwise; changes in a name come on top.
UniProt P48443: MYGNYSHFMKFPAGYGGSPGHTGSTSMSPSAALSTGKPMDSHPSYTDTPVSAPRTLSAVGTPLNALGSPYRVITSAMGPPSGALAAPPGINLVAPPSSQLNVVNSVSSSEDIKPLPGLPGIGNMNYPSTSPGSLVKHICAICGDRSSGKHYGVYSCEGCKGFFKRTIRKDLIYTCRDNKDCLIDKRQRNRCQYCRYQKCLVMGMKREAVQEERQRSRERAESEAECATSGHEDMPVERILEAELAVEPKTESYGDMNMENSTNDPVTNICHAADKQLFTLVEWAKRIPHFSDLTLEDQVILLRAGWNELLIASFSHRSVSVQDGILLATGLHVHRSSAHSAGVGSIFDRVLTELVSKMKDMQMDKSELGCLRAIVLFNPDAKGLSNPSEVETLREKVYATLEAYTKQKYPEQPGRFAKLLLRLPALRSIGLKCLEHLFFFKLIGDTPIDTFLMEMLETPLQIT
UniProt Q92622: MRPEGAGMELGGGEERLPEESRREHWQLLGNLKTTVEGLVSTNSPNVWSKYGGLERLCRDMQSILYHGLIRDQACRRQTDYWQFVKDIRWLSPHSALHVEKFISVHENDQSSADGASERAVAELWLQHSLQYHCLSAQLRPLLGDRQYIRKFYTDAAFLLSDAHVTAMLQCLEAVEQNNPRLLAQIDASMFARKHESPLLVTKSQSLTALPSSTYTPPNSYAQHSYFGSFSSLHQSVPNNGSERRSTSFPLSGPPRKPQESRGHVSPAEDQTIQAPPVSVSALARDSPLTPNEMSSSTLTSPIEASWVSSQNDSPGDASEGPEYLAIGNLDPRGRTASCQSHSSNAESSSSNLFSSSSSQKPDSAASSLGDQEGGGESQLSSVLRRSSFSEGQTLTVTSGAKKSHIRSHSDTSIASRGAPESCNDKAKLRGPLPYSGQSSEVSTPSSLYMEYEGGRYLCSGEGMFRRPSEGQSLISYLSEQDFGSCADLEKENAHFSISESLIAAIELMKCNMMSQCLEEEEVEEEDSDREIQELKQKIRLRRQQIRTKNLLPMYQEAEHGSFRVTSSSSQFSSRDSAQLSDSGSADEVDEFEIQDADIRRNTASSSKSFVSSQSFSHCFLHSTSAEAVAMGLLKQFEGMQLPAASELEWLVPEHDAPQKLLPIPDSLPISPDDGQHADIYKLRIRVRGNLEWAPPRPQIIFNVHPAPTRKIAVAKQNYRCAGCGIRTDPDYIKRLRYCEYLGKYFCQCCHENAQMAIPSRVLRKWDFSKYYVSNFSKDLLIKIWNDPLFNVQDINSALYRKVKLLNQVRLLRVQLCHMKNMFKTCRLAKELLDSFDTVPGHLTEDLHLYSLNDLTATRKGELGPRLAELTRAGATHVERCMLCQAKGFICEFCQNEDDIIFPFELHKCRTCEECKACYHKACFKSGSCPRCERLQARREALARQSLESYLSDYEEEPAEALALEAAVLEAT
UniProt P28702: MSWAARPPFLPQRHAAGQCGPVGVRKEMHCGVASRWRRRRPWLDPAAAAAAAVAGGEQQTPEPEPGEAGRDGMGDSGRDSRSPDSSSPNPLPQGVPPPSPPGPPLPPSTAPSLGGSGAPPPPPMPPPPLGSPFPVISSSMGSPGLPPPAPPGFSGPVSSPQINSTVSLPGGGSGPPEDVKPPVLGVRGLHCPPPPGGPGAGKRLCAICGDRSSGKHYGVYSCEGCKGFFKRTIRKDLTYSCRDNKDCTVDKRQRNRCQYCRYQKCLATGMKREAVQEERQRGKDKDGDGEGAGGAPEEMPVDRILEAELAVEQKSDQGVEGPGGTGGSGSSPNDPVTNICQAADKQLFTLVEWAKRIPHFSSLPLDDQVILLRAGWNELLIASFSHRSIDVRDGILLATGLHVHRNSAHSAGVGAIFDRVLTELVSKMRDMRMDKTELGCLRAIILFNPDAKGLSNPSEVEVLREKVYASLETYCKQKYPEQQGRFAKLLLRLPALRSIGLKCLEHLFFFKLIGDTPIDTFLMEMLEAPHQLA
UniProt Q9HCY8: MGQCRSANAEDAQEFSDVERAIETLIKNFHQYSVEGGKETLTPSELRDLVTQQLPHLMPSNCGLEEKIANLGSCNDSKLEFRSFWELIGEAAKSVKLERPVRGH
UniProt Q5PRF9: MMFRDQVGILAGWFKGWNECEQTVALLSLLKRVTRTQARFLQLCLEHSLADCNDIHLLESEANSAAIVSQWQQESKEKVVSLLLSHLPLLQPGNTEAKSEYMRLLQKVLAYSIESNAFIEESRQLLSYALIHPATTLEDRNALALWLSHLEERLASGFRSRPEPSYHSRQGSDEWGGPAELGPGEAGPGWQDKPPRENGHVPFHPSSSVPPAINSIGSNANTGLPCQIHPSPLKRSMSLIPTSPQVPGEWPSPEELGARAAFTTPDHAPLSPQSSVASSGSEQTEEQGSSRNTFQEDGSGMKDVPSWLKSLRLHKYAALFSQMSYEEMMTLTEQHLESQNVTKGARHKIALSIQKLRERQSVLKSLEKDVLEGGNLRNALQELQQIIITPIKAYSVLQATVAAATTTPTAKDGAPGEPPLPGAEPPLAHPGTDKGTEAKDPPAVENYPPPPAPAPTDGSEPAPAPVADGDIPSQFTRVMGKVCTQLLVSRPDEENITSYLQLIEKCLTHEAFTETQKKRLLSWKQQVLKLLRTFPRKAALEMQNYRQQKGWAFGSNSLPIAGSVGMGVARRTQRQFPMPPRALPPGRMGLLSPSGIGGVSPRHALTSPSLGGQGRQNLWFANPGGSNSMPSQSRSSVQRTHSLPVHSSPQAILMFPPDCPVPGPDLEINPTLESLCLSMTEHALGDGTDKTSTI
UniProt P35499, whole entry, looked up: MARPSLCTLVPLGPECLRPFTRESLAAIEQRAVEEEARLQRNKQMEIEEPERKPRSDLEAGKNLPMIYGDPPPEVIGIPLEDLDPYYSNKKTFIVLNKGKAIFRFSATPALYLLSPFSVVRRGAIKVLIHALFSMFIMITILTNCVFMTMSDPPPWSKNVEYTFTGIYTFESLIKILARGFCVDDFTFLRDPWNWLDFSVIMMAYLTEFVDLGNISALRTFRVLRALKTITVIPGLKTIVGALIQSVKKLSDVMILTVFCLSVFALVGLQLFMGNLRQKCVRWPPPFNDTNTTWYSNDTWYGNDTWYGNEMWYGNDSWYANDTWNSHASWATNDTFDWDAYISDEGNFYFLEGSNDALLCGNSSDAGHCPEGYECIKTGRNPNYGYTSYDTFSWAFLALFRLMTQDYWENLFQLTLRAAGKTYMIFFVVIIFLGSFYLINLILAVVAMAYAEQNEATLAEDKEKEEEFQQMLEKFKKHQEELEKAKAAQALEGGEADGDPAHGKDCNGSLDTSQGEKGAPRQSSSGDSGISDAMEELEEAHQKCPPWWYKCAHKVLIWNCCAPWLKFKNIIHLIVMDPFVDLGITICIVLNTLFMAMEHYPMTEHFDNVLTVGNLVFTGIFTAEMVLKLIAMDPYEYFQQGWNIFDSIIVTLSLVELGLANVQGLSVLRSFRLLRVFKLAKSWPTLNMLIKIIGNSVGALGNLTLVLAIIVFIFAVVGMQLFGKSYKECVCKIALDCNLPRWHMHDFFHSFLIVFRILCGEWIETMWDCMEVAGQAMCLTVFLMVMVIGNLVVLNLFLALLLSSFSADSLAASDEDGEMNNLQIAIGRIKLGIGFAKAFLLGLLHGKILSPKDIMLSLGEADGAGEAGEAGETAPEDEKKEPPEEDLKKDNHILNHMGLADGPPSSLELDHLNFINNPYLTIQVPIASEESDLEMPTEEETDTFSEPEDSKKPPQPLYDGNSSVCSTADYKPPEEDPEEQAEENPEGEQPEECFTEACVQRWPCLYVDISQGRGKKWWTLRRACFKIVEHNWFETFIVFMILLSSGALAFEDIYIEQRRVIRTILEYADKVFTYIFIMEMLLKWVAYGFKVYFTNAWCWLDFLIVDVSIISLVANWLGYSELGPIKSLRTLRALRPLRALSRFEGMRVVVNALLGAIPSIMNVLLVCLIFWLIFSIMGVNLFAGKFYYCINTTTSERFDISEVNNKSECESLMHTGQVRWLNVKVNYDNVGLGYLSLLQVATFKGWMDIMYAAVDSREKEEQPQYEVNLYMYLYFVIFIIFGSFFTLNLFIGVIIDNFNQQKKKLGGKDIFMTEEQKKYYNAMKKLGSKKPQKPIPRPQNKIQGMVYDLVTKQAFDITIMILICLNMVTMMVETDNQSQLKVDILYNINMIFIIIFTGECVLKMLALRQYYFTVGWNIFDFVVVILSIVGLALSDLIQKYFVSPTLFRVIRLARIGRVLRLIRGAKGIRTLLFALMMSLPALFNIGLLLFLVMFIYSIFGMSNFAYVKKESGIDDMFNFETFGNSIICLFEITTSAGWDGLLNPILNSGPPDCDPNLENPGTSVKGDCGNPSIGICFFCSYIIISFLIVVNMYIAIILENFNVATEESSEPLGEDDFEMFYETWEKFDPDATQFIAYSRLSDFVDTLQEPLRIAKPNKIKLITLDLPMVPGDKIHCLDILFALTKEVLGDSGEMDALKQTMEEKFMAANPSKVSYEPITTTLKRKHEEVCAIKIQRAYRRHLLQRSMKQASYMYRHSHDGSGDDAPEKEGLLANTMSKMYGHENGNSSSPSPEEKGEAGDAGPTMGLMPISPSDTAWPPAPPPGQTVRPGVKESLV
UniProt O75056, whole entry, looked up: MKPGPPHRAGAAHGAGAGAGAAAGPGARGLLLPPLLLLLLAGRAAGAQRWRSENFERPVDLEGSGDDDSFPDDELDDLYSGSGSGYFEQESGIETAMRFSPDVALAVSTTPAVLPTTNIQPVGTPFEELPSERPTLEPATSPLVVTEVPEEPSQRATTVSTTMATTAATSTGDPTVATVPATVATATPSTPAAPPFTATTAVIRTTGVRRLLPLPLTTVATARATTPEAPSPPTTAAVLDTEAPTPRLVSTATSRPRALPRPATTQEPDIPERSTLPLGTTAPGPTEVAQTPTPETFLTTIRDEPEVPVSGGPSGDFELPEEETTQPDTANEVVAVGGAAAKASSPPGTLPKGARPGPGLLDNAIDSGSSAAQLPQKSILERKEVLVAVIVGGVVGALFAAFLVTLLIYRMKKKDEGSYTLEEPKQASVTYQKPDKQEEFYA
UniProt O43819: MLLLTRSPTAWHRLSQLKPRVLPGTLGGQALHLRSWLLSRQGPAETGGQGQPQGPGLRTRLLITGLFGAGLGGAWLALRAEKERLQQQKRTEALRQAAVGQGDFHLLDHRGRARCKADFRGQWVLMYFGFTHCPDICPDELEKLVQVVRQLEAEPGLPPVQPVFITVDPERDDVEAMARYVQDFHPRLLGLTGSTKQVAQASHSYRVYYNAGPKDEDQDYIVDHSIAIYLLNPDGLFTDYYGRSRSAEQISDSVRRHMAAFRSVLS
UniProt Q6UWP8: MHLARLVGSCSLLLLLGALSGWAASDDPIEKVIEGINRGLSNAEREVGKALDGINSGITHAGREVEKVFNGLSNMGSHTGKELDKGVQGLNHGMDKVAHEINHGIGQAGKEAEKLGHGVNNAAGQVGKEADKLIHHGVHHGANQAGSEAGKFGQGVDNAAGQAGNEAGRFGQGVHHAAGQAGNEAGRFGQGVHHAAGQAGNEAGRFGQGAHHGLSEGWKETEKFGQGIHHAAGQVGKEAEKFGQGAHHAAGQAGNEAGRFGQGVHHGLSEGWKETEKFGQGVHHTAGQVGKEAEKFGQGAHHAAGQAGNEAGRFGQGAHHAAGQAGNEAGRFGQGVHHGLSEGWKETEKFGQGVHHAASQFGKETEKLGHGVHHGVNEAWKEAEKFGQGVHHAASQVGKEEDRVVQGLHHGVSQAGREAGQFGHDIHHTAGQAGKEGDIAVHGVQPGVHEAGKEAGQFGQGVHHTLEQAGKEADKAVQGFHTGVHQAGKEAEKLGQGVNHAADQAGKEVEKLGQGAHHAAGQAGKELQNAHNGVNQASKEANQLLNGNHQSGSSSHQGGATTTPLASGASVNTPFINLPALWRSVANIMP
UniProt Q96NL6: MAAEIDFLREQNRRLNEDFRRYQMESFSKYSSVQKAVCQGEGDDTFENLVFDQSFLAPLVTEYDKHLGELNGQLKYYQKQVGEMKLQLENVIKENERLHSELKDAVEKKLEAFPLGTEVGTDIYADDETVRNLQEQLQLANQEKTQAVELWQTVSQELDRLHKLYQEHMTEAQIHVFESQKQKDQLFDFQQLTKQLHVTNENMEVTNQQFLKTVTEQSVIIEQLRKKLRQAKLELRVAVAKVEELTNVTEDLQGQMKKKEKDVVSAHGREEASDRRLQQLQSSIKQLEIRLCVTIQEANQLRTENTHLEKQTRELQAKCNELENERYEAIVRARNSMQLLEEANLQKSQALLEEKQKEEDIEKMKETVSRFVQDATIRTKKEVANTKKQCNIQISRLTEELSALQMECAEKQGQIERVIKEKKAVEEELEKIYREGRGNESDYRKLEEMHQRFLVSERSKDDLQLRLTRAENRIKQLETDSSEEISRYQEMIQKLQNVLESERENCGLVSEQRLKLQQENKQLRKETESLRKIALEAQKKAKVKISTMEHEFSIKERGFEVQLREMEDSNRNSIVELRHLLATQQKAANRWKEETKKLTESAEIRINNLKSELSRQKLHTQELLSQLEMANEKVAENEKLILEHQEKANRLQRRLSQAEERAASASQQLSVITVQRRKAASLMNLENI

Experiments:
Test in all cases: log2 fold change, soluble protein after heating vs DMSO (PISA); higher = thermal stabilisation; K562 cells, 10 uM, 30 min; active = over 0.2 and 3.5 SD of the protein, either way, in both replicates (recomputed)
[1] = compound: CC[C@@H]1C(=O)N(C)c2cnc(Nc3ccc(C(=O)NC4CCN(C)CC4)cc3OC)nc2N1C1CCCC1
How it was run: (§1)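 K562 cells at 2×10^6 cells/mL were exposed to 10 μM compound for 30 min, then aliquots were heated for 3 min across 48°C-58°C, pooled, and extracted in PBS containing 0.5% NP-40 at 4°C. The supernatant after 21,000xg for 90 min was taken as soluble protein and measured by TMTpro 16plex LC-MS/MS with channel sums equalised. Thermal stability is reported relative to control samples, with values from duplicates. Fold changes are given on a log2 scale.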

volasertib = compound: CC[C@@H]1C(=O)N(C)c2cnc(Nc3ccc(C(=O)N[C@H]4CC[C@H](N5CCN(CC6CC6)CC5)CC4)cc3OC)nc2N1C(C)C [volasertib]
How it was run: as §1

[2] = compound: CCn1c(C(=O)N(C2CC2)C2CC2)cc2c3c(ncn3C)c(Nc3cc(C)n(C)n3)nc21
How it was run: as §1

[3] = compound: CCn1cc(-c2ccnc3[nH]c(-c4cccc(CN(C)C)c4)cc23)c(-c2ccc(NC(=O)N(C)C)cc2)n1
How it was run: as §1

[4] = compound: CN(C)CC(=O)Nc1ccc2[nH]c(=O)c3ccccc3c2c1
How it was run: as §1

[5] = compound: CN1C2=C(C3=C1C(=O)N(N=C3)CC4=CC(=CC=C4)N)SC(=C2)S(=O)C
How it was run: as §1

[6] = compound: CN1CCC(CNc2ccc3ncc(-c4cccc(OC(F)(F)F)c4)n3n2)CC1
How it was run: as §1

epoxomicin = compound: CC[C@H](C)[C@@H](C(=O)N[C@@H]([C@@H](C)O)C(=O)N[C@@H](CC(C)C)C(=O)[C@]1(CO1)C)NC(=O)[C@H]([C@@H](C)CC)N(C)C(=O)C [epoxomicin]
How it was run: as §1

rosiglitazone = compound: CN(CCOC1=CC=C(C=C1)C[C@H]2C(=O)NC(=O)S2)C3=CC=CC=N3 (racemic) [rosiglitazone]
How it was run: as §1

[7] = compound: CC[C@H](C)N1C=C(C2=C(C=C(C=C21)C3=CN=C(C=C3)N4CCNCC4)C(=O)NCC5=C(C=C(NC5=O)C)C)C
How it was run: as §1

Measured: log2 fold change

RWDD2B (UniProt P57060)
inactive: [1] -0.006 | volasertib -0.118 | [2] -0.061 | [3] 0.069 | [4] -0.213 | [5] 0.004 | [6] -0.73

RXRG (UniProt P48443)
inactive: [3] -0.03 | [6] -0.101

SAE1 (UniProt M0R286)
inactive: volasertib -0.028 | epoxomicin -0.225 | [2] 0.11 | [4] 0.082 | rosiglitazone 0.078

S100A16 (UniProt Q96FQ6)
inactive: [1] 0.047 | [7] 0.394 | epoxomicin 0.104 | [2] -0.004 | [4] -0.067 | rosiglitazone 0.017 | [5] 0.314

SDF2 (UniProt Q99470)
inactive: volasertib -0.132 | epoxomicin 0.124 | [2] 0.098 | [3] 0.011 | rosiglitazone 0.059 | [6] 0.003

SEC14L1 isoform 2 (UniProt Q92503)
inactive: [1] 0.056 | epoxomicin -0.072 | [2] -0.053 | [3] -0.002 | [4] 0.132 | [5] -0.012 | [6] -0.362

RUBCN (UniProt Q92622)
inactive: [4] -0.154

SCAI isoform 2 (UniProt Q8N9R8)
inactive: epoxomicin 0.201 | [2] -0.041 | [4] 0.181 | [5] 0.067

RXRB isoform 3 (UniProt P28702)
inactive: epoxomicin 0.508 | rosiglitazone 0.079

S100A14 (UniProt Q9HCY8)
inactive: [1] 0.305 | [7] 0.158 | [2] -0.356 | [4] 0.178 | rosiglitazone 0.046 | [5] 0.816

RTN4, A0A0U1RQR6
inactive: epoxomicin 0.088

SAMD4B (UniProt Q5PRF9)
inactive: volasertib 0.078 | [7] -0.047 | epoxomicin 0.02 | [3] 0.023 | [5] 0.089 | [6] -0.308

SCGB2A1 (UniProt O75556)
inactive: [7] 1.35 | rosiglitazone -0.001

SAYSD1 (UniProt Q9NPB0)
inactive: [1] 0.027 | volasertib -0.047 | epoxomicin 0.056 | [2] 0.105 | rosiglitazone 0.089

SCN4A (UniProt P35499)
inactive: [5] 0.104

SEC22A (UniProt Q96IW7)
inactive: volasertib -0.046 | [2] -0.059 | [3] -0.018 | rosiglitazone -0.103 | [5] -0.118 | [6] 0.077

SDAD1 (UniProt Q9NVU7)
inactive: [1] 0.04 | [7] -0.065 | epoxomicin -0.107 | [3] 0.188 | rosiglitazone 0.01 | [5] 0.179 | [6] -0.124

SDC3 (UniProt O75056)
inactive: [1] 0.223 | [7] 0.067 | epoxomicin 0.005 | [3] -0.401 | [4] 0.006 | [5] -0.017 | [6] 0.632

SCO2 (UniProt O43819)
inactive: [1] -0.109 | volasertib -0.346 | epoxomicin -0.055 | [3] -0.051 | [4] 0.039 | [5] -0.014 | [6] -0.187

RSL24D1 (UniProt Q9UHA3)
inactive: [1] 0.253 | [7] -0.079 | epoxomicin -0.494 | [2] -0.181 | [4] -0.258 | rosiglitazone -0.117

SBSN (UniProt Q6UWP8)
inactive: [1] 0.703 | [7] 0.058

SAP30 (UniProt O75446)
inactive: volasertib 0.042 | [7] -0.039 | epoxomicin -0.109 | [3] -0.051 | [4] 0.013 | [5] 0.175 | [6] 0.064

SASS6 (UniProt Q6UVJ0)
inactive: volasertib -0.162 | [7] 0.252 | epoxomicin -0.001 | [2] -0.194 | [3] -0.027 | [4] -0.143 | rosiglitazone 0.193 | [5] 0.128 | [6] -0.021

Taken from the results shown (two entries):
SDAD1 (UniProt Q9NVU7)
inactive: [1] 0.04 | [7] -0.065 | epoxomicin -0.107 | [3] 0.188 | rosiglitazone 0.01 | [5] 0.179 | [6] -0.124

SDC3 (UniProt O75056)
inactive: [1] 0.223 | [7] 0.067 | epoxomicin 0.005 | [3] -0.401 | [4] 0.006 | [5] -0.017 | [6] 0.632

Next entries:

SCRIB isoform 3 (UniProt Q14160)
inactive: [2] -0.217 | [3] -0.03 | [5] 0.124 | [6] 0.234

SCLT1 (UniProt Q96NL6)
inactive: [7] -0.066 | [3] -0.116 | [4] -0.013 | [5] -0.089 | [6] -0.029

SEC24B isoform 3 (UniProt O95487)
inactive: [1] -0.15 | volasertib -0.179 | epoxomicin 0.089 | [3] 0.045 | [4] 0.057 | rosiglitazone -0.046 | [5] 0.047 | [6] -0.01
